Here are results for one molecule from patent US20210283117A1, “PROPHYLACTIC OR THERAPEUTIC AGENT FOR PROSTATE CANCER” (KEIO UNIVERSITY, priority 2018, published 2021).

One test has as its system C4-2AT6 cell lines. The test can be described thus: cells. The conditions noted are these: 48 h.
The test system of the next test is LN-CaP cell lines. The test can be described thus: cells. Conditions: Homo sapiens, LNCaP, 48 h.

SMILES strings stand for the structures.

The IC50 is the point on the concentration scale where inhibition reaches its midpoint. A low value points to greater potency in that assay. Turning to `CNC(=O)c1ccc(N2C(=S)N(c3ccc(C#N)c(C(F)(F)F)c3)C(=O)C2(C)C)cc1F` [enzalutamide], the IC50 in the test with C4-2AT6 cell lines worked out at 94.3 µM; in the test with LN-CaP cell lines, 12.1 µM.
